The text below walks through data of PMC11500565.

Results are given in words; binding and its absence hold for the method and conditions named. In cells and extracts the contact can be indirect. Some entries that bind do so weakly or less than the wild type. Tags and fused reporters may be left off the sequences shown.

Common to all, as to assay: co-IP; proteins co-expressed transiently in Nicotiana benthamiana leaves by agroinfiltration; protein extracts incubated with anti-HA antibody beads at 4°C for one hour; blots probed with anti-HA and anti-FLAG (anti-DYKDDDDK) antibodies
One experiment deals with T1, ABF1-3×HA (Arabidopsis) (UniProt Q9M7Q5).
T1 sequence: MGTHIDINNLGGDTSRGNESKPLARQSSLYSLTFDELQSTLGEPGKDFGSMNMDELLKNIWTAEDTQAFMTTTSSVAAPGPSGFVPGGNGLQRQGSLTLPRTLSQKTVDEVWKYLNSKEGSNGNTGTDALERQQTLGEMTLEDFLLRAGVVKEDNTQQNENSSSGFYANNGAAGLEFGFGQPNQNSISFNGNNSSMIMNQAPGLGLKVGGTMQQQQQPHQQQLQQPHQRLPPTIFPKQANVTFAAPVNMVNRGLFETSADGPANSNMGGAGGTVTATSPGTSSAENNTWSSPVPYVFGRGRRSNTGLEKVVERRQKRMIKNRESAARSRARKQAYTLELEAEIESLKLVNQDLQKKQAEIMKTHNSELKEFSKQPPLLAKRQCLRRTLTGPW

A further experiment has as its target T2, ABF2-3×HA (Arabidopsis) (UniProt Q9M7Q4).
T2 sequence: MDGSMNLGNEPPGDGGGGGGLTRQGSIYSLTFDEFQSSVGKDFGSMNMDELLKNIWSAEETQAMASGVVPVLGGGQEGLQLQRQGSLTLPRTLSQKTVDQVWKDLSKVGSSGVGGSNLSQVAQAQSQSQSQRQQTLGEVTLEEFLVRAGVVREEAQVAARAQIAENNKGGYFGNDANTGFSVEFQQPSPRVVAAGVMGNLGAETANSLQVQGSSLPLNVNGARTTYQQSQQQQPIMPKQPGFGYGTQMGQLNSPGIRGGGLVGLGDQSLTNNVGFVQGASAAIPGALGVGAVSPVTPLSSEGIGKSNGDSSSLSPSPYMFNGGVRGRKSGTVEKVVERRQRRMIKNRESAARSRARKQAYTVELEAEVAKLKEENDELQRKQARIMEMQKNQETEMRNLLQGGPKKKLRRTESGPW

Experiment [1] deals with T3, … DOMAIN 16 (IDD16) (Arabidopsis) (UniProt Q9FRH4).
T3 sequence: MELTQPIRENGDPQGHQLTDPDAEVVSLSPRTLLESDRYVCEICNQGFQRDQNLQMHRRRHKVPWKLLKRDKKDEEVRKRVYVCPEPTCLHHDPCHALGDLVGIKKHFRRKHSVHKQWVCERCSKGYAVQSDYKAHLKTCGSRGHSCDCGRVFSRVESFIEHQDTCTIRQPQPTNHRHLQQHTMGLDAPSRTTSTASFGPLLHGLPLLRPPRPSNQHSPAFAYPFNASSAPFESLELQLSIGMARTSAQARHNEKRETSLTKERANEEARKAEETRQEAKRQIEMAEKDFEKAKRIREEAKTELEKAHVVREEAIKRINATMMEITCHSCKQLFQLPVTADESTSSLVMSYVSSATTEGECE

B1: SHOOT GRAVITROPISM 5 (SGR5)-3×FLAG (protein, UniProt F4IPE3 1-445)
chain: MRTDQVMLSNKNTNTCCVVSSSSSDPFLSSSENGVTTTNTSTQKRKRRPAGTPDPDAEVVSLSPRTLLESDRYICEICNQGFQRDQNLQMHRRRHKVPWKLLKRDNNIEVKKRVYVCPEPTCLHHNPCHALGDLVGIKKHFRRKHSNHKQWVCERCSKGYAVQSDYKAHLKTCGTRGHSCDCGRVFSRVESFIEHQDNCSARRVHREPPRPPQTAVTVPACSSRTASTVSTPSSETNYGGTVAVTTPQPLEGRPIHQRISSSILTNSSNNLNLELQLLPLSSNQNPNQENQQQKVKEPSHHHNHNHDTTNLNLSIAPSSSYQHYNNFDRIKEIMASEQIMKIAMKEKAYAEEAKREAKRQREIAENEFANAKKIRQKAQAELERAKFLKEQSMKKISSTIMQVTCQTCKGQFQAVAVPAATADETSLVVSYMSSANTDGELENGF
Take B1: the binding result in the experiment with ABF1-3×HA (Arabidopsis) is “no binding”; with ABF2-3×HA (Arabidopsis), “no binding”; in experiment [1], “binds”.
